Results as given in the supplement of paper PMC10849652.
This is one part of the list.

By UniProt entry, the sequences of proteins in these tests, tags left out. Where a name states a change or a piece, a line headed by the entry shows the natural chain unless it says otherwise.
UniProt Q7Z4R8: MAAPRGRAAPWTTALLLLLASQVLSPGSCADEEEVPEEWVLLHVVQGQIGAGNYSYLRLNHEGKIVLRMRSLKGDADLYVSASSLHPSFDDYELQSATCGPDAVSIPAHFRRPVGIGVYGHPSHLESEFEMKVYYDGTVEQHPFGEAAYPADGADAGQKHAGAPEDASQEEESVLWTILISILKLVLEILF
UniProt P0DMB2: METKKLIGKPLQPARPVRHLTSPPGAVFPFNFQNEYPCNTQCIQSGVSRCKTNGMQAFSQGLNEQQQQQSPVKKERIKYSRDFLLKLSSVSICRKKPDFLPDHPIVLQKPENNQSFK
UniProt Q5SNV9: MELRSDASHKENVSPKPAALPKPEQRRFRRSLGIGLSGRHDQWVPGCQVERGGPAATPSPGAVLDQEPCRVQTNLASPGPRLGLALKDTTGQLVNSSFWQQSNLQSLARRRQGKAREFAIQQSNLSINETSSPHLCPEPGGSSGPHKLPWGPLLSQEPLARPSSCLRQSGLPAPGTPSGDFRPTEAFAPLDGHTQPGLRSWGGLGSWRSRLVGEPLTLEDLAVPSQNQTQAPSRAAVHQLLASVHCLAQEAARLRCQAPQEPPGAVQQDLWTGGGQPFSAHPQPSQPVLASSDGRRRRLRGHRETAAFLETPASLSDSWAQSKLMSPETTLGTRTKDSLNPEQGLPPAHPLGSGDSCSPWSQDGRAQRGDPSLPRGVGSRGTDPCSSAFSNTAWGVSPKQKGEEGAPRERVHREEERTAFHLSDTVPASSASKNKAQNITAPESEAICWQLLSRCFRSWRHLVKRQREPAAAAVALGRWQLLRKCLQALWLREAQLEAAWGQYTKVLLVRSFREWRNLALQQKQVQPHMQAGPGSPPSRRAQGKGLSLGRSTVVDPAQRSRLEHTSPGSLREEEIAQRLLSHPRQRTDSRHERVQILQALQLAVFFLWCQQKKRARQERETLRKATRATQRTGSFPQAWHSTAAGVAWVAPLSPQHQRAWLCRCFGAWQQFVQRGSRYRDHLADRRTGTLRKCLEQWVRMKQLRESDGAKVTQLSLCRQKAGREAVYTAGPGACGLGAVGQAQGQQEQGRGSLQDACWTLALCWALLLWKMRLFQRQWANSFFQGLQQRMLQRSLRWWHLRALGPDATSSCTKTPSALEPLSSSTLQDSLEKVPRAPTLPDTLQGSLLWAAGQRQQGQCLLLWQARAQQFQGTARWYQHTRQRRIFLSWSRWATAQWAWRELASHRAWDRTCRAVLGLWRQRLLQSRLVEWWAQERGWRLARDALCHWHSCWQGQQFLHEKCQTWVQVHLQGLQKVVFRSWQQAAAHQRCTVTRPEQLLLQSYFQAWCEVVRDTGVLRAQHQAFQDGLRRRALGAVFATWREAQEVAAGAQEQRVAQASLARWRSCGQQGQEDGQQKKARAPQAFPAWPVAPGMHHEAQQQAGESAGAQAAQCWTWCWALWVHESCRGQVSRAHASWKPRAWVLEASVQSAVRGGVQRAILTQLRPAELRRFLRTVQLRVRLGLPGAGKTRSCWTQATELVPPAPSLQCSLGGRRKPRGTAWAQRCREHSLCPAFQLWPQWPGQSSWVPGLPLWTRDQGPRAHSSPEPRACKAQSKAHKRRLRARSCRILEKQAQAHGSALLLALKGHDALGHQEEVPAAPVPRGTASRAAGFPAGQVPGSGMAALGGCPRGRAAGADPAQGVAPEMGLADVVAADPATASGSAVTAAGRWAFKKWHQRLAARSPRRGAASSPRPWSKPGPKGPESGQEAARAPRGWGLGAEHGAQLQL
UniProt Q7Z7L8: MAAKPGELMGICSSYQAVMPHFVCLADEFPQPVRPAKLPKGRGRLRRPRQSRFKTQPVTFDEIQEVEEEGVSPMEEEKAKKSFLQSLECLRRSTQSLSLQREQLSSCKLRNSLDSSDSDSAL
UniProt P01031, whole entry, looked up: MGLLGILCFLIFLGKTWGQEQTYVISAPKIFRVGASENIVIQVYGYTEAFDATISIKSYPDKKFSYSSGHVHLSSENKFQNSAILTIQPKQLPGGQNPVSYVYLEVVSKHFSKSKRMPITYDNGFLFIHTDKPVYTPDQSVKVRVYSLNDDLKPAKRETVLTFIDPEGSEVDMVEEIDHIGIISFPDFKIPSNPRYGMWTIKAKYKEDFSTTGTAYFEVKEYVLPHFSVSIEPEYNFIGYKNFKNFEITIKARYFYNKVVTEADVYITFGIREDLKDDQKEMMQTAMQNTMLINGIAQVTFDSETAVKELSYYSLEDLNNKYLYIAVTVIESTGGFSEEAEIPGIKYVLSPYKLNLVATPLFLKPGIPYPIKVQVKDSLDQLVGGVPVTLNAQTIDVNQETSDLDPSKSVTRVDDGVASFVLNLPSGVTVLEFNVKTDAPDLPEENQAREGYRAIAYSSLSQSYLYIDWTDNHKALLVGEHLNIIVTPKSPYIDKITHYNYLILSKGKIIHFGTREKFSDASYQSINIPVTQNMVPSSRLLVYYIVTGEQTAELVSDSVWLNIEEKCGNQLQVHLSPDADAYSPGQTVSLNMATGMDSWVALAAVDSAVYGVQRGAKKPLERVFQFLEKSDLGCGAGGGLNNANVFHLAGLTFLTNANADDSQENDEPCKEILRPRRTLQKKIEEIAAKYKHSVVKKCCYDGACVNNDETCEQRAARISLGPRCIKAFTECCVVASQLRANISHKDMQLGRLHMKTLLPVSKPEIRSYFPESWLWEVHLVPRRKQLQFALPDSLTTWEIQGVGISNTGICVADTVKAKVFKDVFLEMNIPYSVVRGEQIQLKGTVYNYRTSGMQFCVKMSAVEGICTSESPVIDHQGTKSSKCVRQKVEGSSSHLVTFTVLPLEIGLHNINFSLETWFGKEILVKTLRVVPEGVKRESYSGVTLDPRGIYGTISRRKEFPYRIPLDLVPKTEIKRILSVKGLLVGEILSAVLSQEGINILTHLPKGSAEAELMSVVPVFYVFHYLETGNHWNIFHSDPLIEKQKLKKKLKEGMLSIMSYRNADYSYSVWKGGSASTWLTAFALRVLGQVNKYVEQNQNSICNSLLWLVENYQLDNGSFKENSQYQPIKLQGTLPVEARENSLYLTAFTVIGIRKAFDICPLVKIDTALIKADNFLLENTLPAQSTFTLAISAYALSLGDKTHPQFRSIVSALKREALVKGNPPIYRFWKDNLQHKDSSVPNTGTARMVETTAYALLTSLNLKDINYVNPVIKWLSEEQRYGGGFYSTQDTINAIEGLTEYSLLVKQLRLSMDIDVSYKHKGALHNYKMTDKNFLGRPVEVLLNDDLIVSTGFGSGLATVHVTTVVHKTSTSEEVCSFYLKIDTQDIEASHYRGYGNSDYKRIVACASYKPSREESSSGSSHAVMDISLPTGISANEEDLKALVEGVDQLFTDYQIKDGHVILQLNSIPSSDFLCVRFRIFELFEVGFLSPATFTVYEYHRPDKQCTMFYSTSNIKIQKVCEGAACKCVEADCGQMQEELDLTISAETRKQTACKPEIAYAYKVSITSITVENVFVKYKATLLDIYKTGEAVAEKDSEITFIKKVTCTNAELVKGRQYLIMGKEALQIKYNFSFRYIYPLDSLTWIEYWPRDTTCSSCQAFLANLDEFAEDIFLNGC
UniProt P27482, whole entry, looked up: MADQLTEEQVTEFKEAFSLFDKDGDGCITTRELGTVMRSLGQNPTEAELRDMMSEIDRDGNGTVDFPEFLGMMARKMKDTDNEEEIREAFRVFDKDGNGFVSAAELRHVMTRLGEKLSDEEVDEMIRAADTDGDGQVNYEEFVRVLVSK
UniProt Q8TCD1: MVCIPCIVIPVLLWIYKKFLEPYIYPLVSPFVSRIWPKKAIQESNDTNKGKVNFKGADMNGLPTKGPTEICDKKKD
UniProt Q5U649: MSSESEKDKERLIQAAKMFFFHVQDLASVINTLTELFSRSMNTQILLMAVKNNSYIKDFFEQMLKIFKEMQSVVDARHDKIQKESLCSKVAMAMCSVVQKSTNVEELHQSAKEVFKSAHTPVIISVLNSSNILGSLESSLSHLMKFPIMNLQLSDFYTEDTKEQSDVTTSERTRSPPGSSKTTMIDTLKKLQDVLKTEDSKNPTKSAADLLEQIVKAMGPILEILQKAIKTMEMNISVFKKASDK
UniProt Q96HA4: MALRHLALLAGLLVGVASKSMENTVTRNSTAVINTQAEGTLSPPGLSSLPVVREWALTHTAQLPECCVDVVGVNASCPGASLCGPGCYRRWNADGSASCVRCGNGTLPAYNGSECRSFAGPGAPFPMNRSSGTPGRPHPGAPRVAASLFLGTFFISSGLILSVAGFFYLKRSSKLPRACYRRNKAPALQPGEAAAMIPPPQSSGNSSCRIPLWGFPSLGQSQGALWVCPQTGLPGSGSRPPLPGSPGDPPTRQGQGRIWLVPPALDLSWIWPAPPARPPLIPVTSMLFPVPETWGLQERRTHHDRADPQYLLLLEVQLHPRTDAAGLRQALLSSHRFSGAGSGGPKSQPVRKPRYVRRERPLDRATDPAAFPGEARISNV
UniProt Q32NC0: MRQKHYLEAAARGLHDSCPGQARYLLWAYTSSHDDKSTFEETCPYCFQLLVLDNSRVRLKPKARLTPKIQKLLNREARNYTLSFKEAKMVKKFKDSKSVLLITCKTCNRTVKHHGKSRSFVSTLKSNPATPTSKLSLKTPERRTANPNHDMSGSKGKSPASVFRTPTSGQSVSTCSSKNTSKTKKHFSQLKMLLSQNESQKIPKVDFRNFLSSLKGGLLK
UniProt Q7Z6I8: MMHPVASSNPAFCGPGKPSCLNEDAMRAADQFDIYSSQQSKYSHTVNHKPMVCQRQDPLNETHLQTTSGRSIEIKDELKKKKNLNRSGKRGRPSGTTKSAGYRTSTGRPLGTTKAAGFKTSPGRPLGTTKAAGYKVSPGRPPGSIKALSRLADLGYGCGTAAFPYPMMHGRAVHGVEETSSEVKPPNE
UniProt Q8N5S9: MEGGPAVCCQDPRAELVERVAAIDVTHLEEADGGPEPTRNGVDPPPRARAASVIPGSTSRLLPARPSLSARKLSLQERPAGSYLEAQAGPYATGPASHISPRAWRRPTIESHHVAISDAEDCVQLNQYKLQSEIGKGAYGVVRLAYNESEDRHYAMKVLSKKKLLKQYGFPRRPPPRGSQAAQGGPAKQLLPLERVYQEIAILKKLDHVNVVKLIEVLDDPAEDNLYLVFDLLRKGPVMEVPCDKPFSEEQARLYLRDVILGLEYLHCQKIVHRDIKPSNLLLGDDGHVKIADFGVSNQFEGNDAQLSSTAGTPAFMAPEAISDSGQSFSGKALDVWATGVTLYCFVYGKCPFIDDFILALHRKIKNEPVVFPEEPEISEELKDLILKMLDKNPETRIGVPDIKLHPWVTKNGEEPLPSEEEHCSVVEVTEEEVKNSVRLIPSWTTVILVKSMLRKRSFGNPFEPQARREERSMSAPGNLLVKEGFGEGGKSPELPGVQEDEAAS
UniProt Q3KRA6: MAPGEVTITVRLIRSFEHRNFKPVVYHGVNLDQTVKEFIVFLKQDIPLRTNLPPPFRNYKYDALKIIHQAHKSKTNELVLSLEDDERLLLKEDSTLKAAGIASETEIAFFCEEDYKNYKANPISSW
UniProt Q9NSK7: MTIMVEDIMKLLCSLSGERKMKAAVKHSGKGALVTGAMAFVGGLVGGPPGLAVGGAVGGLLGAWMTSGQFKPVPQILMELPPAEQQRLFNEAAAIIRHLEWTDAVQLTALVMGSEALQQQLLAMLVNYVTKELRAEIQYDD
UniProt Q504U0: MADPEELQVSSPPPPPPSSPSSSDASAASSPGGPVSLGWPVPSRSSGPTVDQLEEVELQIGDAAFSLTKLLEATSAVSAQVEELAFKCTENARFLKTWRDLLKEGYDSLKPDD
UniProt Q6PH81: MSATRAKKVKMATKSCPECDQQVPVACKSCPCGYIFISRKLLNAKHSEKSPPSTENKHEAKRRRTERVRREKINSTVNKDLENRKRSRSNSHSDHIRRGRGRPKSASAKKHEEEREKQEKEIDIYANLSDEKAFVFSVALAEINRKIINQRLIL
UniProt Q9BV19: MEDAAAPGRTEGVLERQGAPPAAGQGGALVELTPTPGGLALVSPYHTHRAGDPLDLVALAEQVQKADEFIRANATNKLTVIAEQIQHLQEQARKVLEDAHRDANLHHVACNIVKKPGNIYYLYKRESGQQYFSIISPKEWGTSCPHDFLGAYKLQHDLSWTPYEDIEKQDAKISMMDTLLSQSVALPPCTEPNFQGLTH
UniProt Q9BSF8: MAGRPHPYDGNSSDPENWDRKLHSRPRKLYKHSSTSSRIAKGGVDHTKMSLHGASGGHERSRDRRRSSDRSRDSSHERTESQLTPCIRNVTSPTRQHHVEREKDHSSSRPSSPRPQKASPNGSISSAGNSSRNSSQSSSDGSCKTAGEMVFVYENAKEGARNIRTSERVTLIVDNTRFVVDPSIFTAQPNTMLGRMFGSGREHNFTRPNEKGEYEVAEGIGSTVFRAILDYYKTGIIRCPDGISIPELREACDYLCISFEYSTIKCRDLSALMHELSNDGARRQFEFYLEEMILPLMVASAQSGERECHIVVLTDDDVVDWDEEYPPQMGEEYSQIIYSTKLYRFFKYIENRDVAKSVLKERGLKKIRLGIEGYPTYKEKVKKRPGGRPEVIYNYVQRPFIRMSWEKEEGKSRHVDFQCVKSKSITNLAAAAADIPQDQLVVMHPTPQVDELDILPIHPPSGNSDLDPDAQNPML

Tests used:
Assay in all cases: log2 fold change, soluble protein after heating vs DMSO (PISA); higher = thermal stabilisation; K562 cells, 10 uM, 30 min; active = over 0.2 and 3.5 SD of the protein, either way, in both replicates (recomputed)
[1] = compound: COC1=CC=C(C=C1)CN2C=CC3=C2C=C(C=C3)C(=O)NO
Summary of the method: (§1)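 Aliquots of K562 cells (2×10^6 cells/mL) treated with 10 μM compound for 30 min were heated for 3 min over 48°C-58°C. After pooling and extraction in PBS with 0.5% NP-40 at 4°C, soluble protein from a 21,000xg, 90 min spin was quantified by TMTpro 16plex LC-MS/MS with channel sums equalised. Thermal stability is expressed against control samples, from duplicates, as a log2 fold change.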

filanesib = compound: CON(C)C(=O)N1N=C(c2cc(F)ccc2F)S[C@@]1(CCCN)c1ccccc1 [filanesib]
Summary of the method: as §1

[2] = compound: COc1cc2nc(-c3cc(F)ccc3O)nc(N[C@@H]3CNC[C@H]3C(C)(C)O)c2cc1OC
Summary of the method: as §1

gefitinib = compound: COc1cc2ncnc(Nc3ccc(F)c(Cl)c3)c2cc1OCCCN1CCOCC1 [gefitinib]
Summary of the method: as §1

lapatinib = compound: CS(=O)(=O)CCNCc1ccc(-c2ccc3ncnc(Nc4ccc(OCc5cccc(F)c5)c(Cl)c4)c3c2)o1 [lapatinib]
Summary of the method: as §1

zotarolimus = compound: CO[C@H]1C[C@@H]2CC[C@@H](C)[C@@](O)(O2)C(=O)C(=O)N2CCCC[C@H]2C(=O)O[C@H]([C@H](C)C[C@@H]2CC[C@H](n3cnnn3)[C@H](OC)C2)CC(=O)[C@H](C)/C=C(\C)[C@@H](O)[C@@H](OC)C(=O)[C@H](C)C[C@H](C)/C=C/C=C/C=C/1C [zotarolimus]
Summary of the method: as §1

alisertib = compound: COc1cc(Nc2ncc3c(n2)-c2ccc(Cl)cc2C(c2c(F)cccc2OC)=NC3)ccc1C(=O)O [alisertib]
Summary of the method: as §1

[3] = compound: COc1cccc2cc(-c3nc([C@H]4CC[C@H](C(=O)O)CC4)n4ncnc(N)c34)[nH]c12
Summary of the method: as §1

idasanutlin = compound: COc1cc(C(=O)O)ccc1NC(=O)[C@@H]1N[C@@H](CC(C)(C)C)[C@](C#N)(c2ccc(Cl)cc2F)[C@H]1c1cccc(Cl)c1F [idasanutlin]
Summary of the method: as §1

pictilisib = compound: CS(=O)(=O)N1CCN(Cc2cc3nc(-c4cccc5[nH]ncc45)nc(N4CCOCC4)c3s2)CC1 [pictilisib]
Summary of the method: as §1

Measured: log2 fold change

C6orf120 (UniProt Q7Z4R8)
inactive: [1] 0.003 | filanesib -0.053 | [2] -0.135 | gefitinib -0.008 | lapatinib -0.114

BTD isoform 3 (UniProt P43251)
inactive: [1] -0.048 | filanesib 0.054 | zotarolimus -0.032 | alisertib -0.094 | [2] 0.071 | gefitinib 0.038 | [3] 0.02 | lapatinib -0.043

C8orf88 (UniProt P0DMB2)
inactive: [1] -0.098 | zotarolimus -0.734 | idasanutlin 0.082 | alisertib -0.016 | [2] -0.113 | [3] 0.077 | lapatinib -0.282 | pictilisib -0.039

C16orf70 (UniProt Q9BSU1)
inactive: [1] -0.149 | filanesib -0.351 | idasanutlin 0.226 | [2] -0.01 | lapatinib 0.13

C1orf167 isoform 2 (UniProt Q5SNV9)
inactive: [1] 0.043 | filanesib 0.253 | zotarolimus -0.064 | alisertib 0.001 | [2] 0.392 | gefitinib -0.061 | [3] -0.001 | lapatinib -0.117

CARD8 isoform 5 (UniProt Q9Y2G2)
inactive: [1] -0.102 | filanesib 0.083 | idasanutlin 0.006 | alisertib -0.038 | [2] 0.145 | gefitinib -0.256 | [3] -0.121 | lapatinib -0.547 | pictilisib -0.038

C11orf96 (UniProt Q7Z7L8)
inactive: [1] 0.26 | zotarolimus -0.25 | [2] 0.009 | lapatinib 0.036 | pictilisib 0.028

C12orf73 (UniProt Q69YU5)
inactive: [1] -0.032 | filanesib 0.062 | zotarolimus 0.074 | alisertib -0.119 | [2] -0.12 | gefitinib 0.049 | [3] 0.01 | lapatinib -0.05 | pictilisib -0.08

CAAP1 (UniProt Q9H8G2)
inactive: [1] -0.118 | filanesib 0.18 | zotarolimus -0.074 | idasanutlin 0.119 | [2] -0.033 | gefitinib -0.17 | lapatinib 0.055

C5 (UniProt P01031)
inactive: [1] -0.216 | filanesib 0.222 | zotarolimus 0.038 | pictilisib 0.189

C6orf62 (UniProt Q9GZU0)
inactive: pictilisib 0.031

CALML3 (UniProt P27482)
inactive: idasanutlin 0.527 | alisertib 1.72 | [2] -0.277 | [3] -0.19 | lapatinib 0.108

C18orf32 (UniProt Q8TCD1)
inactive: filanesib -0.009 | zotarolimus 0.015 | idasanutlin -0.107 | alisertib -0.041 | [2] -0.042 | gefitinib -0.029 | [3] 0.055 | lapatinib -0.12 | pictilisib 0.015

C12orf60 (UniProt Q5U649)
inactive: [2] 0.191 | lapatinib 0.085

C1orf159 isoform 4 (UniProt Q96HA4)
inactive: filanesib -0.025 | zotarolimus 0.217 | pictilisib -0.008

C7orf50 (UniProt Q9BRJ6)
inactive: zotarolimus 0.119 | idasanutlin 0.159

C12orf49 (UniProt Q9H741)
inactive: pictilisib -0.012

C18orf21 (UniProt Q32NC0)
inactive: alisertib -0.019 | [3] -0.243

CAPNS1 (UniProt U3KPR7)
inactive: idasanutlin 0.086

C9orf16 (UniProt Q9BUW7)
inactive: alisertib -0.069 | gefitinib -0.005 | [3] 0 | pictilisib 0.003

C5orf24 (UniProt Q7Z6I8)
inactive: alisertib -0.115 | [2] -0.128 | gefitinib -0.338 | [3] -0.014 | lapatinib 0.112 | pictilisib -0.064

Two records drawn at random from those above:
CAPNS1 (UniProt U3KPR7)
inactive: idasanutlin 0.086

C18orf21 (UniProt Q32NC0)
inactive: alisertib -0.019 | [3] -0.243

More results:

CAPN15 (UniProt O75808)
inactive: filanesib -0.041 | [2] 0.295 | lapatinib 0.244 | pictilisib -0.158

CAMKK1 isoform 2 (UniProt Q8N5S9)
inactive: [2] 0.035 | lapatinib -0.02 | pictilisib -0.067

C2orf76 (UniProt Q3KRA6)
inactive: filanesib -0.059 | idasanutlin -0.144 | alisertib 0.068 | [3] -0.168

C12orf10 (UniProt Q9HB07)
inactive: pictilisib -0.121

C17orf99 (UniProt Q6UX52)
inactive: idasanutlin 0.417 | alisertib 0.359 | [3] -0.097 | pictilisib 0.108

CAD (UniProt H7BZB3)
inactive: idasanutlin -0.006

C1orf112 (UniProt Q9NSG2)
inactive: filanesib 0.065 | idasanutlin -0.049 | [2] -0.143 | lapatinib 0.021 | pictilisib -0.1

C19orf12 (UniProt Q9NSK7)
inactive: idasanutlin 0.087 | alisertib -0.084 | [2] -0.216 | gefitinib 0.038 | [3] 0.074 | lapatinib 0.219

C5orf34 (UniProt Q96MH7)
inactive: alisertib -0.109 | [3] -0.078

C9 (UniProt P02748)
inactive: zotarolimus -0.279 | alisertib -0.16 | [3] 0.201

C4orf46 (UniProt Q504U0)
inactive: gefitinib 0.012

C3AR1 (UniProt Q16581)
inactive: gefitinib 0.109

CA2 (UniProt P00918)
inactive: idasanutlin 0.156 | alisertib 0.253 | [2] -0.063 | gefitinib 0.04 | [3] 0.036 | lapatinib -0.261

BSN (UniProt Q9UPA5)
inactive: zotarolimus -0.101 | idasanutlin -0.014

C16orf87 (UniProt Q6PH81)
inactive: filanesib 0.145 | alisertib 0.13 | gefitinib -0.112 | [3] 0.061

CALM1 (UniProt G3V361)
inactive: filanesib -0.138

CABIN1 (UniProt Q9Y6J0)
inactive: alisertib 0.01 | [3] 0.154

C3orf86 (UniProt P0DN24)
inactive: alisertib 0.143 | gefitinib -0.078 | [3] -0.177

C1orf50 (UniProt Q9BV19)
inactive: filanesib 0.079 | zotarolimus 0.162 | idasanutlin 0.21 | alisertib -0.088 | [2] -0.068 | gefitinib 0.043 | [3] 0.029 | lapatinib -0.093 | pictilisib -0.177

BTBD6 (UniProt Q96KE9)
inactive: filanesib -0.019 | zotarolimus 0.062 | idasanutlin 0.053 | alisertib -0.058 | [2] 0.194 | gefitinib 0.03 | [3] -0.186 | lapatinib -0.072 | pictilisib 0.143

BTBD10 isoform 2 (UniProt Q9BSF8)
inactive: idasanutlin 0.127 | [2] 0.193 | lapatinib -0.32 | pictilisib 0.06

C5orf30 (UniProt Q96GV9)
inactive: idasanutlin 0.022 | [2] -0.094 | lapatinib -0.21
